27 compounds from PubChem BioAssay AID256 (DTP/NCI, 2004) can be followed below.

The list is a part of this screen's results and no random one: it is rich in T/C values a quarter to a half above the control, in often repeated tests (any T/C) and in doses without a T/C. Other doses and runs of a compound stand elsewhere. T/C gives the treated animals as a percentage of the vehicle group. Some doses have a count of surviving animals in place of a T/C: the source holds a T/C of zero for them, seemingly a mark for toxic or unscored doses. Some survivor counts are full or nearly so, which does not show that the dose was tolerated: the source hardly ever lists a survival T/C far under the control, and the zero likely stands for such cases as well. Counts of survivors are from the toxicity check (mostly the fifth day) where no day follows; animals may have died later. Schedules are NCI's codes, read here as Q, the interval in days (D) or hours (H), X, the number of doses. Some entries were tested several times; the results are listed from low to high. Some structures stand for samples that the source files as different forms (salt, stereo form or complex); doses refer to the form tested. For survival time, this PubChem deposit counts one and a half times the control or more as active, and values a quarter to a half above the control carry no call in these data; other NCI protocols may use other cut-offs. Brackets with × count equal records among those shown.

The assay has as its system CD2F1 mice, L1210 leukemia ip, survival T/C. The experiment in a line: NCI In Vivo Anticancer Drug Screen. Data for tumor model L1210 Leukemia (intraperitoneal) in CD2F1 (CDF1) mice. The conditions noted are these: higher T/C = longer survival. The essentials:
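Implant tumor; dose compound or vehicle; measure endpoint in both groups; report treated divided by control.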

[1] abbreviates: T/C endpoint: mean survival time, dose: 100.0 mg/kg/injection, schedule: Q01DX009 (ip), vehicle: saline with Tween-80.
Where [2] appears, read: T/C endpoint: mean survival time, dose: 200.0 mg/kg/injection, schedule: Q01DX009 (ip), vehicle: saline with Tween-80.
[3] abbreviates: T/C endpoint: mean survival time, dose: 200.0 mg/kg/injection, schedule: Q01DX009 (ip), vehicle: saline.
The mark [4] stands for this setting: T/C endpoint: mean survival time, dose: 400.0 mg/kg/injection, schedule: Q01DX009 (ip), vehicle: saline.
[5] abbreviates: T/C endpoint: mean survival time, dose: 400.0 mg/kg/injection, schedule: Q01DX009 (ip), vehicle: saline with Tween-80.
[6] abbreviates: T/C endpoint: mean survival time, dose: 50.0 mg/kg/injection, schedule: Q01DX009 (ip), vehicle: saline.
Setting [7] is: T/C endpoint: mean survival time, dose: 100.0 mg/kg/injection, schedule: Q01DX009 (ip), vehicle: saline.
Setting [8] is: T/C endpoint: mean survival time, dose: 200.0 mg/kg/injection, schedule: Q01DX001 (ip), vehicle: saline.
The mark [9] stands for this setting: T/C endpoint: mean survival time, dose: 400.0 mg/kg/injection, schedule: Q01DX001 (ip), vehicle: saline.
The mark [10] stands for this setting: T/C endpoint: mean survival time, dose: 400.0 mg/kg/injection, schedule: Q04DX003 (ip), vehicle: saline with Tween-80.
The mark [11] stands for this setting: T/C endpoint: mean survival time, dose: 300.0 mg/kg/injection, schedule: Q01DX001 (ip), vehicle: saline.

`O=C1CSC(=S)N1/N=C/c1ccccc1`: the survivor count runs as follows: (T/C endpoint: mean survival time, dose: 200.0 mg/kg/injection, schedule: Q04DX002 (ip), vehicle: saline) 0 of 3; (T/C endpoint: mean survival time, dose: 400.0 mg/kg/injection, schedule: Q04DX002 (ip), vehicle: saline) 1 of 3.
Regarding `CC[C@@]1(O)C(=O)OCc2c1cc1n(c2=O)Cc2cc3cc(OC)ccc3nc2-1`, for the setting “T/C endpoint: mean survival time, dose: 1.56 mg/kg/injection, schedule: Q04DX003 (ip), vehicle: water”, the T/C was 143 % of control. The survivor count runs as follows: (T/C endpoint: mean survival time, dose: 6.25 mg/kg/injection, schedule: Q04DX003 (ip), vehicle: water) 6 of 6; (T/C endpoint: mean survival time, dose: 12.5 mg/kg/injection, schedule: Q04DX003 (ip), vehicle: water) 4 of 6 and 6 of 6; (T/C endpoint: mean survival time, dose: 25.0 mg/kg/injection, schedule: Q04DX003 (ip), vehicle: other) 5 of 6; (T/C endpoint: mean survival time, dose: 25.0 mg/kg/injection, schedule: Q04DX003 (ip), vehicle: water) 3 of 6; (T/C endpoint: mean survival time, dose: 50.0 mg/kg/injection, schedule: Q04DX003 (ip), vehicle: other) 1 of 6; (T/C endpoint: mean survival time, dose: 100.0 mg/kg/injection, schedule: Q04DX003 (ip), vehicle: other) 0 of 6. In addition, where the note is “T/C endpoint: mean survival time, dose: 200.0 mg/kg/injection, schedule: Q04DX003 (ip), vehicle: other”, the survivor count was 0 of 6.
As to `COc1ccc(NC(=O)Nc2ccc(C)c([N+](=O)[O-])c2)c(OC)c1`, the survivor count under setting [1] is recorded as 3 of 3 and the survivor count under setting [2] was 3 of 3.
As for `CNC=O`, the T/C runs as follows: under setting [3], 127 % of control; under setting [4], 142 and 148 % of control; (T/C endpoint: mean survival time, dose: 800.0 mg/kg/injection, schedule: Q01DX009 (ip), vehicle: saline) 129 % of control. Further, for the setting “T/C endpoint: mean survival time, dose: 3200.0 mg/kg/injection, schedule: Q01DX009 (ip), vehicle: saline”, the survivor count was 0 of 6 and 3 of 6.
As to `CNC(=O)Cc1ccc2cc(OC)c(OC)cc2c1`, the survivor count under setting [5] is 0 of 6.
In the case of `CN(C)C(=O)c1cccc(COc2ccc([N+](=O)[O-])cc2Cl)c1`, the survivor count (T/C endpoint: mean survival time, dose: 400.0 mg/kg/injection, schedule: Q01DX009 (ip), vehicle: saline sonified) was 0 of 6.
Consider `C1CN(P2(N3CC3)=NP(N3CC3)(N3CC3)=NP(N3CC3)(N3CC3)=N2)CCO1` (configuration not stated), for which the T/C is 113, 116, 123, 134 % of control (T/C endpoint: mean survival time, dose: 12.5 mg/kg/injection, schedule: Q01DX009 (ip), vehicle: saline); 136, 145 (2×), 146 % of control (T/C endpoint: mean survival time, dose: 25.0 mg/kg/injection, schedule: Q01DX009 (ip), vehicle: saline); 98, 129, 151, 170 % of control under setting [6]; 142 % of control (T/C endpoint: mean survival time, dose: 100.0 mg/kg/injection, schedule: Q01DX001 (ip), vehicle: saline). In addition, the survivor count under setting [7] is 10 of 10 and 6 of 6; the survivor count under setting [8] is reported as 2 of 6; the survivor count under setting [3] was 3 of 6 and 7 of 10; the survivor count under setting [9] is 3 of 6.
For `COCc1nnc2ncnc(N)c2n1`, the survivor count by setting is: (T/C endpoint: mean survival time, dose: 100.0 mg/kg/injection, schedule: Q01DX001 (ip), vehicle: carboxymethylcellulose (CMC)) 1 of 6; (T/C endpoint: mean survival time, dose: 200.0 mg/kg/injection, schedule: Q01DX001 (ip), vehicle: carboxymethylcellulose (CMC)) 0 of 6; (T/C endpoint: mean survival time, dose: 400.0 mg/kg/injection, schedule: Q01DX001 (ip), vehicle: carboxymethylcellulose (CMC)) 0 of 6.
For the compound `CCOC(=O)N(Cl)Cl`, the survivor count by setting is: (T/C endpoint: mean survival time, dose: 25.0 mg/kg/injection, schedule: Q04DX003 (ip), vehicle: saline) 1 of 3; (T/C endpoint: mean survival time, dose: 50.0 mg/kg/injection, schedule: Q04DX003 (ip), vehicle: saline) 0 of 3.
Take `C1=CSC(=C2SC=CS2)S1`: the survivor count under setting [10] is 0 of 6.
In the case of `O=c1[nH]cnc2[nH]ccc12`, the survivor count under setting [11] was 2 of 6.
Regarding `Nc1ncc(CCS)c(=O)[nH]1`, the survivor count under setting [9] is reported as 0 of 6.
`CCOP(=O)(OCC)OC(C)C#N` (configuration not stated): the survivor count under setting [6] is 3 of 6, the survivor count under setting [7] is 0 of 6, the survivor count under setting [3] is recorded as 0 of 6 and the survivor count under setting [4] is reported as 0 of 6.
`[N-]=[N+]=C1N=CN=C1c1ncnn1Cc1ccccc1`: the survivor count is 0 of 6 (T/C endpoint: mean survival time, dose: 100.0 mg/kg/injection, schedule: Q01DX001 (ip), vehicle: other); 0 of 6 (T/C endpoint: mean survival time, dose: 200.0 mg/kg/injection, schedule: Q01DX001 (ip), vehicle: other); 0 of 6 (T/C endpoint: mean survival time, dose: 400.0 mg/kg/injection, schedule: Q01DX001 (ip), vehicle: other).
Consider `Cc1nc2c(N)cc(Cl)cc2[nH]1`, for which the survivor count is listed as 4 of 6 (T/C endpoint: median survival time, dose: 200.0 mg/kg/injection, schedule: Q01DX005 (ip), vehicle: saline with Tween-80) and 0 of 6 (T/C endpoint: median survival time, dose: 400.0 mg/kg/injection, schedule: Q01DX005 (ip), vehicle: saline with Tween-80).
On to `Nc1ccc2c(Cl)cc(Cl)cc2c1`, for which the survivor count under setting [10] is 0 of 6.
As for `CC(C)(C)N1CCc2cc3c(cc2C1)OCO3`, the survivor count reads like this: (T/C endpoint: mean survival time, dose: 150.0 mg/kg/injection, schedule: Q01DX001 (ip), vehicle: saline) 1 of 6; under setting [8], 0 of 6 and 2 of 6; under setting [11], 0 of 6; under setting [9], 0 of 6.
`CCOC(=O)CN1CCC2CC1c1c([nH]c3ccccc13)C2c1cc2c(cc1OC)N(C)C1C(O)(C(=O)OC)C(OC(C)=O)C3(CC)C=CCN4CCC21C43` (configuration not stated): the survivor count (T/C endpoint: mean survival time, dose: 4.0 mg/kg/injection, schedule: Q01DX009 (ip), vehicle: other) was 6 of 6.
For `CC1C=C(Br)C(=O)C(n2cnc3c(=O)n(C)c(=O)n(C)c32)O1` (configuration not stated), the survivor count is recorded as 0 of 6 (T/C endpoint: mean survival time, dose: 50.0 mg/kg/injection, schedule: Q01DX005 (ip), vehicle: distilled water + Tween-80); 0 of 6 (T/C endpoint: mean survival time, dose: 100.0 mg/kg/injection, schedule: Q01DX005 (ip), vehicle: distilled water + Tween-80); 0 of 6 (T/C endpoint: mean survival time, dose: 200.0 mg/kg/injection, schedule: Q01DX005 (ip), vehicle: distilled water + Tween-80).
As to `CCOC(=O)Nc1cc(NCCCCc2ccccc2)c([N+](=O)[O-])c(N)n1`, the survivor count by setting is: (T/C endpoint: mean survival time, dose: 100.0 mg/kg/injection, schedule: Q01DX001 (ip), vehicle: Klucel (hydroxypropylcellulose) (HPC)) 6 of 6; (T/C endpoint: mean survival time, dose: 200.0 mg/kg/injection, schedule: Q01DX001 (ip), vehicle: Klucel (hydroxypropylcellulose) (HPC)) 6 of 6; (T/C endpoint: mean survival time, dose: 400.0 mg/kg/injection, schedule: Q01DX001 (ip), vehicle: Klucel (hydroxypropylcellulose) (HPC)) 6 of 6.
With `c1cncc(CCc2cccnc2)c1`, the survivor count (T/C endpoint: mean survival time, dose: 400.0 mg/kg/injection, schedule: Q04DX003 (ip), vehicle: saline) is on record as 0 of 3.
As for `N#CC(NCc1ccccc1)c1ccc2c(c1)OCO2` (configuration not stated), the survivor count is given as 2 of 6 under setting [2] and 2 of 6 under setting [10].
Turning to `CCCCS/C=C\C(=O)OCC`, the survivor count (T/C endpoint: mean survival time, dose: 200.0 mg/kg/injection, schedule: Q04DX002 (ip), vehicle: saline with Tween-80) is given as 2 of 3.
In the case of `Nc1ccc(Cl)cc1N`, the T/C (T/C endpoint: mean survival time, dose: 200.0 mg/kg/injection, schedule: Q01DX009 (ip), vehicle: other) is 127 % of control.
With `NNc1ncnc2nncnc12`, the survivor count is recorded as 2 of 6 (T/C endpoint: mean survival time, dose: 75.0 mg/kg/injection, schedule: Q01DX001 (ip), vehicle: other); 1 of 6 (T/C endpoint: mean survival time, dose: 150.0 mg/kg/injection, schedule: Q01DX001 (ip), vehicle: other); 0 of 6 (T/C endpoint: mean survival time, dose: 300.0 mg/kg/injection, schedule: Q01DX001 (ip), vehicle: other).
On to `CC(=O)OC1C(CO)OC2C1Oc1nc(=N)c(F)cn12` (configuration not stated), for which the T/C under setting [6] is 139 % of control.
In the case of `C/C(=N/NC(=O)CC#N)c1ccccc1`, the survivor count is reported as 3 of 3 under setting [1], 0 of 3 under setting [2] and 0 of 3 under setting [5].
